Here are results for 3 molecules from article doi:10.1101/2024.04.30.591961.

Read-outs that look alike come from different tables or passages of the source. Results are given in words; binding and its absence hold for the method and conditions named. For some of these results: In cells and extracts the contact can be indirect. Some entries that bind do so weakly or less than the wild type. For some of these results: Sequences can lack the tags named with a protein.

The target of experiment [1] is T1, PEX7-FLAG-HA (human) (UniProt O00628).
T1 sequence: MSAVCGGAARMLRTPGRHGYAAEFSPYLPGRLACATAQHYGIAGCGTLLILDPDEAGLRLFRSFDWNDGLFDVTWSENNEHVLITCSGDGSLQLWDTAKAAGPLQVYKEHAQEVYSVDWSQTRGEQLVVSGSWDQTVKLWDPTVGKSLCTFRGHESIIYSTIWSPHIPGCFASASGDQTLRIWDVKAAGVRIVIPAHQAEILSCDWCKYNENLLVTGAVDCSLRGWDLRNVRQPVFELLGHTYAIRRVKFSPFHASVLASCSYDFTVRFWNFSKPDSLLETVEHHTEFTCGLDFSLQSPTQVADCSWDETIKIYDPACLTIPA
In words: co-IP.

Experiment [2] addresses HsPEX39-FLAG-HA (human) (UniProt Q5I0X4). In words: co-IP.
Experiment [3] concerns the target T2, radiolabeled H6PEX7 (human) (UniProt O00628).
T2 sequence (chain, [^35S]methionine label): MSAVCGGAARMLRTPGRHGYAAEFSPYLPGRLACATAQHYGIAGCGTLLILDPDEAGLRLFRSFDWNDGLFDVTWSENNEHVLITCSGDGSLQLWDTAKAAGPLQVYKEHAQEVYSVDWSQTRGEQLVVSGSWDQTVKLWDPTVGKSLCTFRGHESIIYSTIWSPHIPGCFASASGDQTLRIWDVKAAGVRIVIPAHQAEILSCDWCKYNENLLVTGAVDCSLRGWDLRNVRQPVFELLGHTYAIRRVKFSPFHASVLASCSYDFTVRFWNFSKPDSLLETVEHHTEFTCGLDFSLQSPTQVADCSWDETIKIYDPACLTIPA
In words: native gel or EMSA. (In general: Mobility shift assays separate free from complexed probe on a gel.)

Experiment [4] has as its target T2, radiolabeled H6PEX7 (human). In words: native gel or EMSA. This is another data set of the same source.
For experiment [5] the target is unchanged. In words: native gel or EMSA. The source holds these as a separate data set.
Experiment [6] deals with HsPEX39-FLAG-HA (human) (UniProt Q5I0X4). In words: co-IP. The source holds these as a separate data set.

B1: calnexin (CANX) (protein, UniProt P27824 21-592)
chain: HDGHDDDVIDIEDDLDDVIEEVEDSKPDTTAPPSSPKVTYKAPVPTGEVYFADSFDRGTLSGWILSKAKKDDTDDEIAKYDGKWEVEEMKESKLPGDKGLVLMSRAKHHAISAKLNKPFLFDTKPLIVQYEVNFQNGIECGGAYVKLLSKTPELNLDQFHDKTPYTIMFGPDKCGEDYKLHFIFRHKNPKTGIYEEKHAKRPDADLKTYFTDKKTHLYTLILNPDNSFEILVDQSVVNSGNLLNDMTPPVNPSREIEDPEDRKPEDWDERPKIPDPEAVKPDDWDEDAPAKIPDEEATKPEGWLDDEPEYVPDPDAEKPEDWDEDMDGEWEAPQIANPRCESAPGCGVWQRPVIDNPNYKGKWKPPMIDNPSYQGIWKPRKIPNPDFFEDLEPFRMTPFSAIGLELWSMTSDIFFDNFIICADRRIVDDWANDGWGLKKAADGAAEPGVVGQMIEAAEERPWLWVVYILTVALPVFLVILFCCSGKKQTSGMEYKKTDAPQPDVKEEEEEKEEEKDKGDEEEEGEEKLEEKQKSDAEEDGGTVSQEEEDRKPKAEEDEILNRSPRNRKPRRE
Regarding B1, the binding result in experiment [1] and in experiment [2] was “no binding” throughout.

B2: HsPEX39(ΔC) (domain or fragment, UniProt Q5I0X4 1-70)
chain: MERPRSPQCSAPASASASVTLAQLLQLVQQGQELPGLEKRHIAAIHGEPTASRLPRRPKPWEAAALAESL
As to B2, the binding entry in experiment [3], in experiment [4] and in experiment [5] was “binds” in each case.

B3: endogenous PEX7 (receptor, UniProt O00628 1-323)
chain: MSAVCGGAARMLRTPGRHGYAAEFSPYLPGRLACATAQHYGIAGCGTLLILDPDEAGLRLFRSFDWNDGLFDVTWSENNEHVLITCSGDGSLQLWDTAKAAGPLQVYKEHAQEVYSVDWSQTRGEQLVVSGSWDQTVKLWDPTVGKSLCTFRGHESIIYSTIWSPHIPGCFASASGDQTLRIWDVKAAGVRIVIPAHQAEILSCDWCKYNENLLVTGAVDCSLRGWDLRNVRQPVFELLGHTYAIRRVKFSPFHASVLASCSYDFTVRFWNFSKPDSLLETVEHHTEFTCGLDFSLQSPTQVADCSWDETIKIYDPACLTIPA
As to B3, the binding entry in experiment [2] and in experiment [6] was “binds” in each case.
